According to article PMC3751843:

Tested on: NF-kB p50 + NF-kB p65
Experiment: EMSA supershift
Conditions: nuclear extract, IL1B-treated AGS, p50 or p65 antibody in separate reactions, chase with unlabelled probe; Binding buffer, pH and temperature not given; extract storage buffer 10 mM Hepes pH 7.9, 50 mM KCl, 0.2 mM EDTA, 20% glycerol, 0.5 mM PMSF, 0.5 mM DTT; protein in an extract

Does “AGTTGAGGGGACTTTCCCAGGC (double strand) [consensus NFkB probe]” bind?
Result: binds

Does “TGACCCCCAGGATATGGTGGG (double strand) [gastrin promoter putative NFkB site probe]” bind?
Result: binds

Construct, isoform or probe ends are uncertain for at least one entry. Where cells or extracts were used, other partners may take part. At least one verdict was read from the data and is not stated in words by the source.
